Source: patent EP0358766A1, “METHOD OF STERILIZING PLANT ANTHERS” (VSESOJUZNY NAUCHNO-ISSLEDOVATELSKY INST. SELSKOKHOZYAISTV. …, priority 1988, dated 1989)

Experiments:
[1] = system: Sonnenblume Sorte Peredovik; experiment: Field test of pollen sterilisation, sunflower Peredovik; format: in vivo
Text: (§1) Die gametozide Aktivität der erfindungsgemäßen Sterilisationsmittel war in Feldversuchen in verschiedenen bodenklimatischen Zonen mit Teilstücken von 10 m^2 Größe in dreibis viermaliger Wiederholung festgestellt. Jedes Sterilisationsmittel wurde mindenstens 5 Jahre lang geprüft.
(§2) Die Entwicklung der Perioden der Organogenese wird zytologisch überwacht. Die Behandlung von Pflanzen mit dem Sterilisationsmittel erfolgt am Anfang der fünften Periode der Organogenese nach Kupermann.
(§3) Zur Kontrolle der chemischen Sterilisation des Sonnenblumenpollens werden für jede Verbindung 45 behandelte Pflanzen je Wiederholung benutzt, wobei 15 Pflanzen zwecks Selbstbestäubung des Blütenkörbchens isoliert werden, 15 Pflanzen mit einem Pollengemisch, gesammelt von 20 bis 25 behandelten isolierten Körbchen, bestäubt werden, und 15 Pflanzen für freie Bestäubung gelassen werden, damit das Ansetzen von Achänen mit dem Pollen der Vaterform kontrolliert worden kann.
(§4) Man beurteilt die Pollensterilität von Pflanzen der Sonnenblume nach der Pollenfertilität und -keimfähigkeit, nach den morphologischen Besonderheiten von Spermien und nach der Fähigkeit von Achänen […] bei der Bestäubung der behandelten isolierten Pflanzen mit dem Pollen der unbehandelten väterlichen Form. Die Lebensfähigkeit der Eizelle wird nach der Samenbildung bei behandelten Pflanzen bei freier Bestäubung der väterlichen Form bestimmt.
Pflanzen der Sonnenblume Sorte Peredovik werden in der V. Periode der Organogenese (nach Kupermann) mit einer 0,2%igen wäßrigen Emulsion von 1,1,3-Tribrompropan, 1,2--Dibrompropan behandelt. Die Emulsion enthält 0,5 Masse% C12-C14-Kalziumalkylbenzolsulfonat und 0,01 Masse% Dimethylsulfoxid als Adjuvans. Der Verbrauch an Präparat beträgt 1,2 kg/ha bei 600 1 Wasserdurchsatz. Die Prüfergebnisse sind in der Tabelle 16 angegeben. Die gleichen Ergebnisse sind bei der Behandlung der Sonnenblume Sorte Peredovik in der VI. Periode der Organogenese erhalten.
Man verfährt analog den Beispielen 85 und 86. Als Sterilisationsmittel dient eine 0,1%ige wäßrige Emulsion von 1,2-Dibrom-3-chlorpropan. Der Verbrauch an Präparat beträgt […]. Die Prüfergebnisse sind in der Tabelle 16 angegeben.

Sonnenblume Linie BK 119 = experiment: Field test of pollen sterilisation, sunflower line BK 119; format: in vivo
Text: as §1, §2, §3, §4
Pflanzen der Sonnenblume Linie BK 119 werden mit einer 0,2%igen wäßrigen Emulsion von 1,1,3-Tribrompropan bzw. 1,2-Dibrompropan behandelt. Die Emulsion enthält 0,5 Masse% C12-C14 Natriumalkylbenzolsulfonat und 0,01 Masse% Dimethylformamid als Adjuvans. Der Verbrauch an Präparat beträgt 1,2 kg/ha bei 600 1 Wasserdurchsatz. Die Prüfergebnisse sind in der Tabelle 17 angegeben. Die gleichen Ergebnisse sind bei der Behandlung von Sonnenblume Linie BK in der VI. Periode der Organogenese erhalten.
Man verführt analog den Beispielen 88-89. Als Sterilisationsmittel dient eine 0,1%ige wäßrige Emulsion von 1,2--Dibrom-3-chlorpropan. Der Verbrauch an Präparat beträgt 0,6 kg/ha bei 600 1 Wasserdurchsatz. Die Prüfergebnisse sind in der Tabelle 17 angegeben.

[2] = period V, 0.2% aqueous emulsion, 1.2 kg/ha in 600 l water
[3] = 0.2% aqueous emulsion, 1.2 kg/ha in 600 l water
[4] = 0.1% aqueous emulsion, 1.0 kg/ha
[5] = 0.1% aqueous emulsion, 0.6 kg/ha in 600 l water

## CC(Br)CBr (stereo not drawn) [Beispiel 5, 1,2-Dibrompropan]
[1]; [2]
  Keimung von Achänen in %: 100,0%
  Masse von 1000 Achänen: 82,7
  Ölgehalt von Achänen in %: 53,2%
Sonnenblume Linie BK 119; [3]
  Keimung von Achänen in %: 100,0%
  Masse von 1000 Achänen in %: 59,5%
  Ölgehalt von Achänen in g: 50,3 g

## BrCCC(Br)Br [Beispiel 1, 1,1,3-Tribrompropan]
[1]; [2]
  Keimung von Achänen in %: 100,0%
  Masse von 1000 Achänen: 80,4
  Ölgehalt von Achänen in %: 54,5%
Sonnenblume Linie BK 119; [3]
  Keimung von Achänen in %: 96,6%
  Masse von 1000 Achänen in %: 56,7%
  Ölgehalt von Achänen in g: 51,1 g

## ClCC(Br)CBr (stereo not drawn) [Beispiel 7, 1,2-Dibrom-3-chlorpropan]
[1]; [4]
  Keimung von Achänen in %: 100,0%
  Masse von 1000 Achänen: 89,0
  Ölgehalt von Achänen in %: 53,5%
Sonnenblume Linie BK 119; [5]
  Keimung von Achänen in %: 99,3%
  Masse von 1000 Achänen in %: 54,0%
  Ölgehalt von Achänen in g: 51,6 g
